According to patent US6592910B1, “Methods of treating clinical diseases with isoflavones” (Board of Trustees, Southern Illinois University, priority 1999, dated 2003):
For at least one compound, name, drawing or mass did not settle the structure.

How the values were obtained:
Type in all cases: in vivo, rat
male Sprague-Dawley rats [1] = assay: Plasma glucose and plasma total cholesterol in male Sprague-Dawley rats injected for 6 weeks; details: fasting; 6 weeks injection
Protocol: (§1) Forty male Sprague-Dawley rats (5 wk old, n=9-10 rats/treatment, from Harlan Sprague-Dawley, Inc., Indianapolis, Ind.) were injected with either genistein (G), daidzein (D), estradiol (E), or a vehicle control (V). Each animal in group V received a daily 0.1 cc subcutaneous injection, for six weeks, of a 10% ethanol-90% olive oil solution; the other treatments received their respective compound as a daily 0.1 cc subcutaneous injection, for six weeks, e.g., 0.1 μg of compound/g of body weight, in a 10% ethanol-90% olive oil solution. Collected blood was heparinized and centrifuged, plasma aliquots were then used for glucose and total cholesterol determinations, using standard glucose oxidase (Fisher Scientific, St. Louis, Mo.) and cholesterol kits (Fisher Scientific, St. Louis, Mo.). Liver cholesterol and triglyceride analysis. Analytical procedures for determination of liver total cholesterol, unesterified cholesterol, cholesteryl ester, and triglyceride concentrations were as described in Example 1. These studies used a randomized design. All data were analyzed by one-way analysis of variance (ANOVA) and post-hoc comparisons were made with Tukey pairwise comparisons test. Significance was confirmed at P≦0.05 (SYSTAT 7.0, SPSS INC., 1997), and all values are reported as means±standard error of the mean.

male Sprague-Dawley rats [2] = assay: Feed and weight measurements in male Sprague-Dawley rats injected for 6 weeks; details: P<0.05; effect lost when corrected for body weight
Protocol: Forty male Sprague-Dawley rats (5 wk old, n=9-10 rats/treatment, from Harlan Sprague-Dawley, Inc., Indianapolis, Ind.) were injected with either genistein (G), daidzein (D), estradiol (E), or a vehicle control (V). Each animal in group V received a daily 0.1 cc subcutaneous injection, for six weeks, of a 10% ethanol-90% olive oil solution; the other treatments received their respective compound as a daily 0.1 cc subcutaneous injection, for six weeks, e.g., 0.1 μg of compound/g of body weight, in a 10% ethanol-90% olive oil solution.
Animal weight and feed intake were measured weekly during the six week study, and the subsequent feed-efficiency ratio [FER (g of weight change/g of feed intake)] was determined. Following sacrifice, the abdominal fat pads, liver, and reproductive organs were removed and weighed for comparison.
These studies used a randomized design. All data were analyzed by one-way analysis of variance (ANOVA) and post-hoc comparisons were made with Tukey pairwise comparisons test. Significance was confirmed at P≦0.05 (SYSTAT 7.0, SPSS INC., 1997), and all values are reported as means±standard error of the mean.

male Sprague-Dawley rats [3] = assay: Liver weight, cholesterol and triglyceride in male Sprague-Dawley rats injected for 6 weeks; details: P<0.05
Protocol: as §1, with “solution. Animal weight and feed intake were measured weekly during the six week study, and the subsequent feed-efficiency ratio [FER (g of weight change/g of feed intake)] was determined. Following sacrifice, the abdominal fat pads, liver, and reproductive organs were removed and weighed for comparison.” for “solution.”

In the case of `C[C@]12CC[C@@H]3c4ccc(O)cc4CC[C@H]3[C@@H]1CC[C@@H]2O` [E, estradiol, reference compound], the “blood glucose levels vs the V group” value (male Sprague-Dawley rats [1]) was “non-significant trend (P<0.1) toward lower”, the “Intraabdominal fat pad weights” value (male Sprague-Dawley rats [2]) was “significantly (P<0.05) lower” and the “Liver cholesteryl esters compared to the V and G treatments” value (male Sprague-Dawley rats [3]) was “significantly (P<0.05) higher”. For the same molecule, the “Liver total cholesterol compared to the V, G, and D animals” value (male Sprague-Dawley rats [3]) was “significantly (P<0.05) higher” and the “Liver weights vs the V group” value (male Sprague-Dawley rats [3]) was “considerably (P<0.05) lower”.
